Reference: doi:10.1101/2023.03.22.533843

Sequences of proteins named here, by UniProt entry; tags and fusion partners are left off.
UniProt Q9NWS0: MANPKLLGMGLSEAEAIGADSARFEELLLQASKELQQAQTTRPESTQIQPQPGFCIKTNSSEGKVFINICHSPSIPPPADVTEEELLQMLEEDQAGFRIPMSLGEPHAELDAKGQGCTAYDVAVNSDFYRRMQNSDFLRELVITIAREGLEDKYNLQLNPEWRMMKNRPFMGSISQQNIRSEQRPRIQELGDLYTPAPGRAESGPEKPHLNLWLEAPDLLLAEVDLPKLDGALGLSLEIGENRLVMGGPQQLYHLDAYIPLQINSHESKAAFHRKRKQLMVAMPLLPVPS
UniProt Q9H6T3: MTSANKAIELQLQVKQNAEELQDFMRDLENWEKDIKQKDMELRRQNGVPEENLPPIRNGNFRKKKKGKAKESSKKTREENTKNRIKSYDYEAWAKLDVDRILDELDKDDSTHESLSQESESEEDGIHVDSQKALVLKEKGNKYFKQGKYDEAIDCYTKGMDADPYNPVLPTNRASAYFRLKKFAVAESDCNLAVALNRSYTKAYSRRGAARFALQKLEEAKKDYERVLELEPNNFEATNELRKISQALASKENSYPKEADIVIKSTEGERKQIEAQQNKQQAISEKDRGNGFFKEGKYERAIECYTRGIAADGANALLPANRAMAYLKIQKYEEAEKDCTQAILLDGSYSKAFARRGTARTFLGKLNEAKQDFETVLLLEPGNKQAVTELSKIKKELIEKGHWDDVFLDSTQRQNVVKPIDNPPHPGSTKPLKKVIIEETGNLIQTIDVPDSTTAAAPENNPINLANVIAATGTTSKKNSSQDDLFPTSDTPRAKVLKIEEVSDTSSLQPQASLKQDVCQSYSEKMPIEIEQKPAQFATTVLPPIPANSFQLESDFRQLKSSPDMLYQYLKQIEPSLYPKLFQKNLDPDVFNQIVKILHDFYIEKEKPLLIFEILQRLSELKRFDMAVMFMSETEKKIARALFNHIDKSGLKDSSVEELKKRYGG
UniProt Q9UBK9: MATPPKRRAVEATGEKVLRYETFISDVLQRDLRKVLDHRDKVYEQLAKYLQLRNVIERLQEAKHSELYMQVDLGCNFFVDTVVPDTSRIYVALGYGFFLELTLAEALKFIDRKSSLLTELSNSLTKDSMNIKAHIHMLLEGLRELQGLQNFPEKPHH
UniProt Q9UHV9: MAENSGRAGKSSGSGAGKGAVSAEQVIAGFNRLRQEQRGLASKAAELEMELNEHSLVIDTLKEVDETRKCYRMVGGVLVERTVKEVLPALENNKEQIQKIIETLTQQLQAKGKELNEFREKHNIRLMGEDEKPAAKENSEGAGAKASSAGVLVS
UniProt P61758: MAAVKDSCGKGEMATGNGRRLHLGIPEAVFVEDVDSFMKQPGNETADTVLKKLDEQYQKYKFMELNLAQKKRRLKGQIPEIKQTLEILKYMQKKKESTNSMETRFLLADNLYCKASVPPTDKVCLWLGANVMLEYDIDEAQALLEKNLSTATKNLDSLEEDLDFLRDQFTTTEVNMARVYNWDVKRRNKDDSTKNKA
UniProt O60925: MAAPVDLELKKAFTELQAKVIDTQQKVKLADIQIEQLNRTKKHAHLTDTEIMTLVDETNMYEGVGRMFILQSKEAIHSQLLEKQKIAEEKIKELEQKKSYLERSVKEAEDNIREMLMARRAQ
UniProt Q99471: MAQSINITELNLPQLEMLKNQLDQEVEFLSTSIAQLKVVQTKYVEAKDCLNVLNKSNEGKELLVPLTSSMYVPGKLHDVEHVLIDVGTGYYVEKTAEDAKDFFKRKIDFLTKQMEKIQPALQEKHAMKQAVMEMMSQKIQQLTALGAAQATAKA
UniProt Q9NUG6: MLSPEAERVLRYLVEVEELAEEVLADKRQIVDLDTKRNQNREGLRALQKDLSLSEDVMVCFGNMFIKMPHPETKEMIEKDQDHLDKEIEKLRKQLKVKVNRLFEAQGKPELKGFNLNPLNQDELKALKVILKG
UniProt Q9Y265: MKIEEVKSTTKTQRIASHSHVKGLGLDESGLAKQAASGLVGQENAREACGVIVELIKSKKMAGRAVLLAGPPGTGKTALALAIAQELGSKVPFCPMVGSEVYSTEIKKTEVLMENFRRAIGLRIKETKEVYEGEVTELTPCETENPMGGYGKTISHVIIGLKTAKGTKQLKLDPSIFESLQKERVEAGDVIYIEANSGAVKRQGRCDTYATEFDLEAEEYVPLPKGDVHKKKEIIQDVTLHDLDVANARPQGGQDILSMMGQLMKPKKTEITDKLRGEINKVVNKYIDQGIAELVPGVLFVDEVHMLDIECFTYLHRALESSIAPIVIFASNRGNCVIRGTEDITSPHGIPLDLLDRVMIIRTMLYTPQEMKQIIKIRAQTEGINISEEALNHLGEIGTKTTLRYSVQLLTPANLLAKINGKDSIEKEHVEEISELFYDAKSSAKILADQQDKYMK
UniProt Q9Y230: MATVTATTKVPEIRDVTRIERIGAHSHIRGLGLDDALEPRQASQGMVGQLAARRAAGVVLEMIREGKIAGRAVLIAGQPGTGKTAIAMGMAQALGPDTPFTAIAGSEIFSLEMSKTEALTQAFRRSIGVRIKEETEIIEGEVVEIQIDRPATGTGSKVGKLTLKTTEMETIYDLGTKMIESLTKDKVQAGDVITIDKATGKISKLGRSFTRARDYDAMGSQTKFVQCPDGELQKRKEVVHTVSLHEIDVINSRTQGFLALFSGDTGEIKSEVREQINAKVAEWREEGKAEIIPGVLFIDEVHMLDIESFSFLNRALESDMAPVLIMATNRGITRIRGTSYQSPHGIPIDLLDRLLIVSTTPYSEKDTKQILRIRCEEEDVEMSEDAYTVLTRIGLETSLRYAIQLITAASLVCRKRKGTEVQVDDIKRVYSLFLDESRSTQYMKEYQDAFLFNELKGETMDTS
UniProt Q9NQP4: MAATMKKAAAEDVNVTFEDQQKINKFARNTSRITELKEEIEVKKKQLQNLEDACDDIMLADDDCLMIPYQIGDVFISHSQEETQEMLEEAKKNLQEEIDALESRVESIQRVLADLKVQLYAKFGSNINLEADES
UniProt P08238: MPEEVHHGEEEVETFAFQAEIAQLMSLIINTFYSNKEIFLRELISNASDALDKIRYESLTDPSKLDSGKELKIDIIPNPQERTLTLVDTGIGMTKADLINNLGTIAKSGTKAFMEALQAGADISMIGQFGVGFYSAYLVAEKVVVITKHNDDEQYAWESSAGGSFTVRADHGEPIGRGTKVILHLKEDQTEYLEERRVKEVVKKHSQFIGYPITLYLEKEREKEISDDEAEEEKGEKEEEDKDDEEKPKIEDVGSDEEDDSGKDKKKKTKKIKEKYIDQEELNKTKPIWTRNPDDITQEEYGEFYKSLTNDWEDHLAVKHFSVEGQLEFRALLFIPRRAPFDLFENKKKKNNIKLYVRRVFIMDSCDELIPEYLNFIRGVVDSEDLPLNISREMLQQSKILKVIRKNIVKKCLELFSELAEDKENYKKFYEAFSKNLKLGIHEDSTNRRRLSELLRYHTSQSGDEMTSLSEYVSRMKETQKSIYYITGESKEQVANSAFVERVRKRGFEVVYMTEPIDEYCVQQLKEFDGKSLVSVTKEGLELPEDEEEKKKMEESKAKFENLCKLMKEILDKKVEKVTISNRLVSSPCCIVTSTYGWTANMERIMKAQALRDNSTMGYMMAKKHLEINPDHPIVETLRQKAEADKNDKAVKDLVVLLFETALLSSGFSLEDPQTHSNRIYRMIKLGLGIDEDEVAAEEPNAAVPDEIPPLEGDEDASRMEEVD
UniProt L0R819: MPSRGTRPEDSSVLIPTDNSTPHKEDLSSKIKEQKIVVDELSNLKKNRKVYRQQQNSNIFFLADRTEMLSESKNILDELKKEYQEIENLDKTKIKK
UniProt P34931: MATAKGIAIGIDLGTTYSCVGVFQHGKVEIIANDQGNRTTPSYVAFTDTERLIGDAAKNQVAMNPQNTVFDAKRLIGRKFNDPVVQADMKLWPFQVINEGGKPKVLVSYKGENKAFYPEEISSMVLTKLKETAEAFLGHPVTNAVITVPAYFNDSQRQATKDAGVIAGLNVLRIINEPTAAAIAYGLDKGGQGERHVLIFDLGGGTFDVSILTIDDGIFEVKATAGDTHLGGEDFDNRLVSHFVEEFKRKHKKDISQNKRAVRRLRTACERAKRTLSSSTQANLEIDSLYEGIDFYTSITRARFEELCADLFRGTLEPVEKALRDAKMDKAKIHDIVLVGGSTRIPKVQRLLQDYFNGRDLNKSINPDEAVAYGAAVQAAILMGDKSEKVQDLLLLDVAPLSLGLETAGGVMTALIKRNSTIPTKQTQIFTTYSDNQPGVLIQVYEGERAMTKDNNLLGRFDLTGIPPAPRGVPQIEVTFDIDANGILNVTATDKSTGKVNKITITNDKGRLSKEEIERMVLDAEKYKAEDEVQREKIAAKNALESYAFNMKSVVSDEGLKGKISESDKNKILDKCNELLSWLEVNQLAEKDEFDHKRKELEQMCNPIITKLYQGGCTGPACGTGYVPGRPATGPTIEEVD
UniProt O15212: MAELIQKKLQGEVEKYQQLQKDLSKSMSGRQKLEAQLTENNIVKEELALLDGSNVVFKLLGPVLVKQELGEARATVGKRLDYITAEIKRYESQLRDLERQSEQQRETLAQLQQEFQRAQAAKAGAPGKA
UniProt Q58FF6: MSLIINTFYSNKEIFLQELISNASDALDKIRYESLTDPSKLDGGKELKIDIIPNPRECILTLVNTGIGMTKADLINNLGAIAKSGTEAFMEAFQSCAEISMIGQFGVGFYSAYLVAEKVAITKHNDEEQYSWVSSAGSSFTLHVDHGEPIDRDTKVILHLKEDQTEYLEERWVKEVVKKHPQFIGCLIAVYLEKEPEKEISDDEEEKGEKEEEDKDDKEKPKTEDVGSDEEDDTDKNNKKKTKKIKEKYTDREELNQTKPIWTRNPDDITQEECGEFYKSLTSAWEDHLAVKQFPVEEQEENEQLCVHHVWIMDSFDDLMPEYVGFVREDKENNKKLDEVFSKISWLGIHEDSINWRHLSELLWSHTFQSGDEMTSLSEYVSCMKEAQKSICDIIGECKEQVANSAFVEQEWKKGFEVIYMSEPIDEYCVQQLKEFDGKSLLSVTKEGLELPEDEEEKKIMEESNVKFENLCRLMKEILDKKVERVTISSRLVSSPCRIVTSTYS

How the values were obtained:
Test in all cases: affinity purification with mass spectrometry
[1] = biological target: PIH1D1 (endogenous prey) (human (endogenous in HEK293)) (UniProt Q9NWS0)
[2] = biological target: RPAP3 (endogenous prey) (human (endogenous in HEK293)) (UniProt Q9H6T3)
SH-tagged UXT (human) [3] = biological target: SH-tagged UXT (human) (UniProt Q9UBK9)
[4] = biological target: SH-tagged PFDN2 (prefoldin subunit 2) (human) (UniProt Q9UHV9)
SH-tagged VBP1 (human) = SH-tagged VBP1 (human) (UniProt P61758)
SH-tagged PFDN1 (human) = SH-tagged PFDN1 (human) (UniProt O60925)
SH-tagged PFDN5 (human) = SH-tagged PFDN5 (human) (UniProt Q99471)
SH-tagged PIH1D1 (human) = SH-tagged PIH1D1 (human) (UniProt Q9NWS0)
[5] = biological target: tagged PDRG1 (AP-MS bait) (human) (UniProt Q9NUG6)
SH-tagged RPAP3 (human) = SH-tagged RPAP3 (human) (UniProt Q9H6T3)
SH-tagged RUVBL1 (human) = SH-tagged RUVBL1 (human) (UniProt Q9Y265)
SH-tagged UXT (human) [6] = biological target: SH-tagged UXT (human) (UniProt Q9UBK9); remark: listed apart in the source
SH-tagged RUVBL2 (human) = SH-tagged RUVBL2 (human) (UniProt Q9Y230)
[7] = biological target: SH-tagged PFDN2 (prefoldin subunit 2) (human) (UniProt Q9UHV9); remark: listed apart in the source

Substance: VBP1 (endogenous prey) (from UniProt P61758 1-197)
binding (SH-tagged UXT (human) [3]): no binding

Substance: PFDN1 (endogenous prey) (from UniProt O60925 1-122)
binding (SH-tagged UXT (human) [3]): no binding | binding [4]: binds

Substance: PFDN4 (endogenous prey) (from UniProt Q9NQP4 1-134)
binding (SH-tagged UXT (human) [3]): no binding | binding [4]: binds

Substance: HSP90AB1 (from UniProt P08238 1-724)
binding [1]: binds | binding [2]: binds

Substance: PDRG1 (endogenous prey) (from UniProt Q9NUG6 1-133)
binding (SH-tagged VBP1 (human)): binds | binding (SH-tagged UXT (human) [3]): binds | binding (SH-tagged PFDN1 (human)): binds | binding (SH-tagged PFDN5 (human)): binds | binding [4]: binds

Substance: ASDURF (from UniProt L0R819 1-96)
binding (SH-tagged PIH1D1 (human)): binds | binding [5]: binds | binding (SH-tagged RPAP3 (human)): binds | binding (SH-tagged RUVBL1 (human)): binds | binding (SH-tagged UXT (human) [6]): binds | binding (SH-tagged RUVBL2 (human)): binds | binding [7]: binds | binding (SH-tagged UXT (human) [3]): binds | binding [4]: binds

Now from value to substance:

binding [1]: binds | binding [2]: binds
Substance: HSPA1L (from UniProt P34931 1-641)

binding (SH-tagged UXT (human) [3]): binds | binding [4]: binds
Substance: RUVBL1 (endogenous prey) (from UniProt Q9Y265 1-456)

binding [4]: binds
Substance: PFDN5 (endogenous prey) (from UniProt Q99471 1-154)

binding (SH-tagged UXT (human) [3]): binds | binding [4]: binds
Substance: PFDN6 (endogenous prey) (from UniProt O15212 1-129)

binding (SH-tagged UXT (human) [3]): binds
Substance: PFDN2 (endogenous prey) (from UniProt Q9UHV9 1-154)

binding [1]: binds | binding [2]: binds
Substance: HSP90B4P (from UniProt Q58FF6 1-505)

Like-named read-outs stand apart in the source and are kept apart here. Results are given in words; binding and its absence hold for the method and conditions named. Binding seen in cells or lysates may run through a third protein. A yes stands for co-enrichment or nearness to the bait. Other partners may have been found. For some of these results: A no says only that the protein was not detected with the bait. One block for each substance: values may come before it.
